{
  "source": "PubChem BioAssay AID540256",
  "about": "(National Center for Advancing Translational Sciences (NCATS), 2011)",
  "note": "The campaign covered roughly 300,000 compounds. About 3,700 (1.2%) were called active. The shares of active, inactive and inconclusive entries below differ from those in the screen. Calls come from the whole dose curve; tested in HEK293 cells. Potencies beside an inconclusive call are fits to weak or partial responses and may not hold up. Potency is the fitted concentration of half-maximal effect.",
  "data": [
    {"assay": "qHTS for Inhibitors of binding or entry into cells for Lassa Virus; note: nearly all actives have a fitted effect of over 50% in size", "conditions": "Lassa virus pseudotype entry inhibition, cell reporter; series mostly up to 37.9 µM", "values": [
      {"smiles": "Cc1ccc(C)c(CN2C(=O)c3ccccc3S(=O)(=O)c3ccc(C(=O)NCCc4ccc(Cl)cc4)cc32)c1", "Potency": "inactive"},
      {"smiles": "CC(C)(C)C1=CC(=Nc2ccccc2N)C=C(C(C)(C)C)C1=O", "Potency": "inactive"},
      {"smiles": "O=C(/C=C/c1ccco1)N1CCN(c2ncccn2)CC1", "Potency": "inconclusive: 16.4 µM [activator, single point]"},
      {"smiles": "CCS(=O)(=O)N1CCN(C(=O)c2cccc3ccccc23)CC1", "Potency": "inconclusive: 2.82 µM [inhibitor, partial curve, poor fit]"},
      {"smiles": "Cc1ccc(O)c(NC(=O)CSc2ccc(Cl)cc2)c1", "Potency": "inconclusive: 8.91 µM [inhibitor, partial curve, poor fit]"},
      {"smiles": "O=C(O)c1ccc(NC2(C(=O)O)CCCC2)cc1", "Potency": "inconclusive: 0.708 µM [activator, partial curve, poor fit]"},
      {"smiles": "COc1cccc(CNC(=O)CCc2c(C)nc3c4c(C)cc(C)nc4nn3c2C)c1", "Potency": "inactive"},
      {"smiles": "O/N=C/c1cn(-c2ccccc2)nc1-c1ccc2c(c1)OCCO2", "Potency": "inactive"},
      {"smiles": "O=C(CCCSc1nnc(SCCCC(=O)c2ccc(F)cc2)s1)c1ccc(F)cc1", "Potency": "inconclusive: 16.4 µM [inhibitor, partial curve]"},
      {"smiles": "Cc1ccccc1OCC(=O)Nc1nnc(SCc2cc(=O)n3cc(Cl)ccc3n2)s1", "Potency": "inactive"},
      {"smiles": "O=C(COc1ccc(F)cc1Cl)Nc1cc(S(=O)(=O)N2CCOCC2)ccc1N1CCCCC1", "Potency": "inconclusive: 8.91 µM [inhibitor, partial curve, poor fit]"},
      {"smiles": "CCN(CC)C(=O)CSc1nnc(SCc2ccc(Cl)cc2)s1", "Potency": "inconclusive: 29.1 µM [inhibitor, single point]"},
      {"smiles": "CCN1C(=O)S/C(=C/c2cn(C)c3ccccc23)C1=O", "Potency": "inconclusive: 5.8 µM [activator, full curve, poor fit]"},
      {"smiles": "O=C(Nc1ccccc1)C(=O)Nc1ccccn1", "Potency": "inconclusive: 7.3 µM [inhibitor, partial curve, poor fit]"},
      {"smiles": "C=CCOC(=O)C1=C(C)NC(SCC(=O)Nc2ccc(C)c(Cl)c2)=C(C#N)C1c1ccco1", "note": "(stereo not given)", "Potency": "inactive"},
      {"smiles": "Cc1cc(NS(=O)(=O)c2cn(C)c(C)n2)ccc1Br", "Potency": "inactive"},
      {"smiles": "COc1cccc(C(=O)COC(=O)c2cc(-c3cccs3)nc3ccccc23)c1", "Potency": "inactive"},
      {"smiles": "CC(=O)c1cc2c(cc1NC(=O)CCC1CCCC1)OCO2", "Potency": "inactive"},
      {"smiles": "O=C(Oc1ccccc1)[C@H]1O[C@H]1c1ccccc1", "Potency": "inconclusive: 1.19 µM [inhibitor, single point]"},
      {"smiles": "Cc1nc2ccc(NS(=O)(=O)c3ccc(F)cc3F)cc2s1", "Potency": "inconclusive: 1.26 µM [inhibitor, partial curve, poor fit]"},
      {"smiles": "Cn1c(SCC(=O)c2ccc(F)cc2)nnc1-c1ccccc1N", "Potency": "inactive"},
      {"smiles": "O=C(NCC1CCCN(C(=O)c2cscn2)C1)c1ccc(-c2ccccc2)cc1", "note": "(stereo not given)", "Potency": "inconclusive: 0.708 µM [inhibitor, full curve, poor fit]"},
      {"smiles": "CC(C)c1ccc(NC(=O)COC(=O)CC2CCCC2)cc1", "Potency": "inconclusive: 5.01 µM [activator, partial curve]"},
      {"smiles": "Cc1ccccc1NCc1ccc(O)c2ncccc12", "Potency": "inconclusive: 20.6 µM [inhibitor, single point]"},
      {"smiles": "CCCCCc1ccc(-c2ccc(/C=C/C(=O)O)cc2)nc1", "Potency": "inconclusive: 5.01 µM [inhibitor, partial curve, poor fit]"},
      {"smiles": "O=C(Cn1cc(S(=O)(=O)Cc2cccc(Cl)c2)c2ccccc21)NCc1ccccc1Cl", "Potency": "inactive"},
      {"smiles": "CN(C(=O)c1cc(-c2ccc3c(c2)OCO3)on1)c1ccccc1", "Potency": "inconclusive: 35.5 µM [inhibitor, single point]"},
      {"smiles": "COc1ccc(NS(=O)(=O)c2cc(N=Nc3c(O)[nH]c(=O)[nH]c3=O)ccc2Cl)cc1", "Potency": "inconclusive: 35.5 µM [inhibitor, single point]"},
      {"smiles": "Cc1nsc2nc3c(F)c(F)c(F)c(F)c3cc12", "Potency": "inconclusive: 20 µM [inhibitor, single point]"},
      {"smiles": "O=C(c1cccs1)N1CCC(c2nc(-c3ccc(S(=O)(=O)N4CCOCC4)cc3)no2)CC1", "Potency": "inconclusive: 25.9 µM [inhibitor, partial curve, poor fit]"},
      {"smiles": "Cc1ccc(C)c(NC(=O)CN(C)C(=O)c2ccc3[nH]c4c(c3c2)CC(C)CC4)c1", "note": "(stereo not given)", "Potency": "active: 0.562 µM"},
      {"smiles": "COc1cccc(-c2csc(N3CCN(C(=O)NC45CC6CC(CC(C6)C4)C5)CC3)n2)c1", "Potency": "inconclusive: 12.6 µM [inhibitor, single point]"},
      {"smiles": "COc1cccc(C(=O)NCC(=O)NCc2cc(=O)n(C)c(=O)n2C)c1OC", "Potency": "inconclusive: 0.631 µM [inhibitor, full curve, poor fit]"},
      {"smiles": "COc1ccc(/C(C)=N/OCC(=O)N2CC3(C)CC2CC(C)(C)C3)cc1", "note": "(stereo not given)", "Potency": "inconclusive: 0.517 µM [inhibitor, partial curve, poor fit]"},
      {"smiles": "CCOc1ccc(N(CC(=O)Nc2ccccc2C(=O)N2CCOCC2)S(=O)(=O)c2ccc(F)cc2)cc1", "Potency": "inconclusive: 29.1 µM [inhibitor, single point]"},
      {"smiles": "O=C(NCc1cccnc1)C1CC2c3ccccc3C1c1ccccc12", "note": "(stereo not given)", "Potency": "inconclusive: 0.259 µM [activator, partial curve, poor fit]"},
      {"smiles": "CCc1ccc2ncc(S(=O)(=O)c3ccc(C)c(C)c3)c(N3CCCC3)c2c1", "Potency": "inconclusive: 35.5 µM [inhibitor, single point]"},
      {"smiles": "COc1ncccc1C(=O)N1CCC(n2nccc2NC(=O)CC(C)C)CC1", "Potency": "inconclusive: 0.631 µM [activator, partial curve, poor fit]"},
      {"smiles": "COC(=O)C(O)(c1ccc(N(C)C(=O)OC(C)C)cc1)C(F)(F)F", "note": "(stereo not given)", "Potency": "inconclusive: 0.366 µM [inhibitor, partial curve, poor fit]"},
      {"smiles": "CCOC(=O)N1CCN(CC(O)COCC2=CCC3CC2C3(C)C)CC1", "note": "(stereo not given)", "Potency": "inconclusive: 10 µM [inhibitor, partial curve]"},
      {"smiles": "Cc1nc2cc(NCc3nc4ccccc4n3Cc3ccccc3)ccc2n1C", "Potency": "inconclusive: 12.6 µM [inhibitor, partial curve, poor fit]"},
      {"smiles": "C=CCSc1nnc(NC(=O)c2c(CC)noc2C)s1", "Potency": "inconclusive: 20 µM [activator, partial curve, poor fit]"},
      {"smiles": "O=[N+]([O-])c1ccc(-c2nc(-c3cccs3)c(-c3cccs3)[nH]2)cc1", "Potency": "inconclusive: 35.5 µM [inhibitor, single point]"},
      {"smiles": "O=C(Nc1ccc(Oc2ccccc2)cc1)c1ccc(F)c(S(=O)(=O)N2CCN(c3ccccc3F)CC2)c1", "Potency": "inconclusive: 3.16 µM [inhibitor, full curve]"},
      {"smiles": "COc1ccc(C/C(N)=N/OC(=O)c2cccc([N+](=O)[O-])c2)cc1", "Potency": "inconclusive: 10 µM [inhibitor, partial curve, poor fit]"},
      {"smiles": "Cc1nn(-c2ccccc2)c2c1c(C)c(CCC(=O)N1CCOCC1)c(=O)n2C", "Potency": "inconclusive: 11.2 µM [inhibitor, partial curve, poor fit]"},
      {"smiles": "CN(c1ccccc1)S(=O)(=O)c1cccc(NC(=O)Nc2ccc(Cl)cc2C#N)c1", "Potency": "inactive"},
      {"smiles": "Cc1ccccc1CN1CCc2c(OCC(=O)N3CCCCC3)cccc2C1=O", "Potency": "inconclusive: 11.2 µM [inhibitor, partial curve, poor fit]"},
      {"smiles": "COC(=O)c1ccccc1N(C)S(=O)(=O)c1cc2c3c(c1)CC(=O)N3CCC2", "Potency": "inactive"},
      {"smiles": "CC(C)CCSc1nnc2n(-c3ccccc3)c(=O)c3c4c(sc3n12)CC(C)CC4", "note": "(stereo not given)", "Potency": "inconclusive: 31.6 µM [activator, single point]"},
      {"smiles": "Cc1cccc(N2CCN(C(=O)C(NS(=O)(=O)c3cccs3)c3ccccc3)CC2)c1C", "note": "(stereo not given)", "Potency": "active: 2.59 µM"},
      {"smiles": "Cc1ccccc1Cn1nc(C)c(NC(=O)c2cc3nc(-c4ccco4)cc(C(F)(F)F)n3n2)c1C", "Potency": "inconclusive: 22.4 µM [inhibitor, single point]"},
      {"smiles": "CCOC(=O)c1c(C)n(C)c2ccc(OCC(O)Cn3nc(C)c(Br)c3C)cc12", "note": "(stereo not given)", "Potency": "inconclusive: 20.6 µM [inhibitor, single point]"},
      {"smiles": "COc1cccc(NC(=S)N2CCN(S(C)(=O)=O)CC2)c1", "Potency": "inactive"},
      {"smiles": "C=CCNc1sc(C(=O)c2ccccc2)c(N)c1-c1nc2ccccc2s1", "Potency": "inconclusive: 31.6 µM [inhibitor, single point]"},
      {"smiles": "COc1ccccc1CCNC(=O)C(=O)NCC(c1cccnc1)N1CCN(c2ccccc2)CC1", "note": "(stereo not given)", "Potency": "inconclusive: 6.31 µM [activator, single point]"},
      {"smiles": "Cc1cc(NC(=O)c2c(F)cccc2F)n(-c2nc3ccccc3[nH]2)n1", "Potency": "inconclusive: 29.1 µM [inhibitor, single point]"},
      {"smiles": "COc1ccc(C2=NN(CCC(=O)NCCc3ccccc3)C(=O)CC2)cc1", "Potency": "inactive"},
      {"smiles": "O=C(c1cccc(Cl)c1)N1CCC(=O)N(C(COCc2cccc(Cl)c2)Cc2ccccc2)CC1", "note": "(stereo not given)", "Potency": "active: 14.6 µM"},
      {"smiles": "CN(C)CCCN(C(=O)CCc1ccccc1)c1nc2ccc(Br)cc2s1", "Potency": "inconclusive: 35.5 µM [inhibitor, single point]"},
      {"smiles": "CCc1cccc(-n2nnc(S(=O)(=O)c3ccc(OC)cc3)c2C)c1", "Potency": "inconclusive: 12.6 µM [inhibitor, single point]"},
      {"smiles": "O=C(CSc1nc2ccccc2[nH]1)Nc1c(F)cccc1F", "Potency": "inconclusive: 23.1 µM [inhibitor, single point]"},
      {"smiles": "Cc1nc2c(c(C)c1CCC(=O)Nc1ccc(F)cc1)c(=O)n(C)c(=O)n2C", "Potency": "inactive"},
      {"smiles": "S=C(Nc1ccc2cn[nH]c2c1)Nc1ccccc1Cl", "Potency": "inconclusive: 14.1 µM [activator, single point]"},
      {"smiles": "CCCCc1nn2c(=O)cc(COC(=O)Cc3ccccc3)nc2s1", "Potency": "inconclusive: 35.5 µM [activator, single point]"}
    ]}
  ]
}
